{"sequences": {"note": "Sequences of proteins named here, by UniProt entry; tags and fusion partners are left off. A change or cut given only in a name is not applied to a line headed by its entry.", "UniProt P18054": "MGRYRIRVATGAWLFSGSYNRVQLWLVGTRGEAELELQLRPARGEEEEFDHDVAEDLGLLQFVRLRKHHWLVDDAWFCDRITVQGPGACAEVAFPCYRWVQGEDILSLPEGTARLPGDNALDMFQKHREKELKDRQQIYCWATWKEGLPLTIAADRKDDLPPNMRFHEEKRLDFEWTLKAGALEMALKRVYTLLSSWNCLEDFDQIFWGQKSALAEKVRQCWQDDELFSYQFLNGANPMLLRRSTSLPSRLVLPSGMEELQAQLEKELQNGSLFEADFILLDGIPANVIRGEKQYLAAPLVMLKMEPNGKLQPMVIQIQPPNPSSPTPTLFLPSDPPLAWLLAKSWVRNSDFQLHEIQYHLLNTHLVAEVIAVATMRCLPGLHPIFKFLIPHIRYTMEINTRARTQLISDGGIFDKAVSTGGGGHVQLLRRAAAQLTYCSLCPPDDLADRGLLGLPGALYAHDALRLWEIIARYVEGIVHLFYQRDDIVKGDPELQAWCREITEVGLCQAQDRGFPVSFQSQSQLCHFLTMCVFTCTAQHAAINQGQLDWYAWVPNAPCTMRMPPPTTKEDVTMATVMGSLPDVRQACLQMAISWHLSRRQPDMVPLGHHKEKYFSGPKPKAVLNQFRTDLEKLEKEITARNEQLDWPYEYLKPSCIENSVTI"}, "source": "PubChem BioAssay AID1671190", "about": "(National Center for Advancing Translational Sciences (NCATS), 2021)", "note": "The whole screen tested about 580,000 compounds, of which about 6,100 (1.1%) were called active. This list was built around the results that the source calls inconclusive (neither active nor inactive); the mix of calls is not that of the screen. Calls follow the shape of the dose curve; as a rule, active = well fitted inhibition curve with a large enough effect; inconclusive = small, poorly fitted or top-dose-only effect, or another doubt; inactive = no such curve, though single readings can be large or run the other way. Potencies beside an inconclusive call are fits to weak or partial responses and may not hold up.", "data": [{"target": "Polyunsaturated fatty acid lipoxygenase ALOX12 (Homo sapiens) (UniProt P18054)", "assay": "Primary qHTS assay for inhibitors of human arachidonate 12S-lipoxygenase (ALOX12): Round 2; also: potency is read from the fitted curve at half-maximal effect", "conditions": "purified 12hLO, xylenol orange hydroperoxide absorbance; series mostly up to 108 µM", "how_it_was_run": "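Hydroperoxide product was detected by ferrous iron/xylenol orange as the 573 to 405 nm absorbance ratio. Arachidonic acid at 40 uM (final) was turned over for 30 min at room temperature by 150 nM human 12hLO, pH 7.0 Hepes buffer, after 15 min compound preincubation.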", "values": [{"molecule": "OC(COCC1COc2ccccc2O1)CN1CCN(c2ccc(F)cc2)CC1", "note": "(stereo not given)", "Potency": "inconclusive: 15.8 µM [inhibitor, partial curve, poor fit]"}, {"molecule": "CC(=O)Nc1ccc(C=NNc2ccc(S(=O)(=O)Nc3ccccc3C(=O)O)cc2[N+](=O)[O-])cc1", "Potency": "inconclusive: 50.1 µM [inhibitor, partial curve, poor fit]"}, {"molecule": "Cc1cccc(NC(=O)CN(C)S(=O)(=O)c2ccc3c(c2)n(C)c(=O)c(=O)n3C)c1C", "Potency": "inactive"}, {"molecule": "Cc1nn(-c2ccccc2)c2[nH]c(=O)c(CNc3ccc(N4CCOCC4)cc3)cc12", "Potency": "inconclusive: 39.8 µM [inhibitor, partial curve, poor fit]"}, {"molecule": "O=C(COC(=O)/C=C/C(=O)N1CCN(c2ccccc2)CC1)NC(c1ccccc1)c1ccccc1", "Potency": "inactive"}, {"molecule": "CCOC(=O)N1CCN(C(=O)CCCn2c(=S)[nH]c3ccsc3c2=O)CC1", "Potency": "inactive"}, {"molecule": "CCCCCC(=O)NNC(=S)NC(C)=O", "Potency": "inactive"}, {"molecule": "O=C(COc1ccccc1)N1C[C@@H]2OCC(=O)N(Cc3ccc(F)cc3)[C@@H]2C1", "Potency": "inactive"}, {"molecule": "CCCCc1ccc(NC(=S)N2CCN(C(=O)c3ccco3)CC2)cc1", "Potency": "inconclusive: 28.2 µM [inhibitor, single point]"}, {"molecule": "CC1(C)CC(=O)C2=C(C1)N(c1ccccc1F)C(=O)CC2c1ccc(Cl)cc1", "note": "(stereo not given)", "Potency": "inconclusive: 63.1 µM [inhibitor, single point]"}, {"molecule": "CCc1nnc(NS(=O)(=O)c2ccc(NC(=O)C(c3ccccc3)c3ccccc3)cc2)s1", "Potency": "inconclusive: 112 µM [inhibitor, partial curve, poor fit]"}, {"molecule": "CCO[C@H]1OC(C(=O)N2CCOCC2)=C[C@@H](c2ccccc2)[C@@H]1CCCO", "Potency": "inactive"}, {"molecule": "Cc1ccc(NC(=O)Cn2ccn3nc(-c4ccccc4)c(CO)c3c2=O)c(Cl)c1", "Potency": "inconclusive: 50.1 µM [inhibitor, partial curve]"}, {"molecule": "Cc1ccc(CNC(=O)CCc2c[nH]c3ccccc23)s1", "Potency": "inconclusive: 89.1 µM [inhibitor, single point]"}, {"molecule": "COc1cccc(CNCCc2c[nH]c3ccccc23)c1OCc1ccc(F)cc1", "Potency": "inconclusive: 50.1 µM [inhibitor, partial curve, poor fit]"}, {"molecule": "CCc1nnc(NC(=O)COc2ccccc2[N+](=O)[O-])s1", "Potency": "inconclusive: 100 µM [inhibitor, single point]"}, {"molecule": "COc1ccc(CN2CCN(C(=O)CC(C)C)CC2)cc1", "Potency": "inconclusive: 0.562 µM [inhibitor, full curve]"}, {"molecule": "Cc1n(CC(O)COCc2ccccc2)c2ccccc2[n+]1C", "note": "(stereo not given)", "Potency": "inconclusive: 56.2 µM [inhibitor, partial curve, poor fit]"}, {"molecule": "Cc1noc(NC(=O)c2ccc(Br)o2)n1", "Potency": "inconclusive: 0.316 µM [inhibitor, full curve, poor fit]"}, {"molecule": "CCN(CC)C(=O)c1ncn2c1C(=O)N(C)CC2", "Potency": "inconclusive: 44.7 µM [inhibitor, partial curve, poor fit]"}, {"molecule": "COc1ccc(/C=C2/SC(=O)NC2=O)cc1", "Potency": "inactive"}, {"molecule": "COc1ccc(-c2nc3cc(NC(=S)NC(=O)Cc4ccccc4)ccc3o2)cc1", "Potency": "active: 28.2 µM"}, {"molecule": "Cc1ccc(Nc2nc(N3CCOCC3)nc(N3CCOCC3)n2)cc1C", "Potency": "inconclusive: 12.6 µM [inhibitor, partial curve, poor fit]"}, {"molecule": "O=C(O)c1ccc(CNCc2ccccc2Cl)cc1", "Potency": "inconclusive: 31.6 µM [inhibitor, partial curve]"}, {"molecule": "Cc1cccc(-c2nc(CC(=O)Nc3cccc(S(=O)(=O)NC4=NCCC4)c3)cs2)c1", "Potency": "inconclusive: 126 µM [inhibitor, single point]"}, {"molecule": "C=CCN(CC=C)C(=O)C1CCN(Cc2ccc(OCc3ccccc3)cc2)CC1", "Potency": "inconclusive: 0.398 µM [inhibitor, full curve, poor fit]"}, {"molecule": "O=C(N1CCN(Cc2ccc3c(c2)OCO3)CC1)C12CC3CC(CC(C3)C1)C2", "Potency": "inconclusive: 44.7 µM [inhibitor, partial curve]"}, {"molecule": "CC1=CC(C)(C)NC(=S)N1c1cccc2cc(S(=O)(=O)O)ccc12", "Potency": "inconclusive: 35.5 µM [inhibitor, partial curve, poor fit]"}, {"molecule": "COCCNC(=S)N(CCC#N)CCN(CCC#N)C(=S)NCCOC", "Potency": "inconclusive: 10 µM [inhibitor, full curve, poor fit]"}, {"molecule": "CCOc1ccc(C(=O)N[C@@H]2CN(c3ncccn3)C[C@H]2CO)cc1", "Potency": "inactive"}, {"molecule": "COC(=O)c1ccc(COc2cccn3c(N(C)C(=O)CCC4CCCC4)c(C)nc23)cc1", "Potency": "inconclusive: 2.24 µM [inhibitor, full curve, poor fit]"}, {"molecule": "Cc1cccc(CSc2nnc(-c3cccs3)n2Cc2ccco2)c1", "Potency": "inactive"}, {"molecule": "CC(CCc1ccccc1)NCc1ccc(Cl)cc1Cl", "note": "(stereo not given)", "Potency": "inconclusive: 0.0355 µM [inhibitor, full curve, poor fit]"}, {"molecule": "Cc1cc(NC(=O)CCNS(=O)(=O)c2cc(Br)cnc2N)ccc1Br", "Potency": "inconclusive: 100 µM [inhibitor, partial curve, poor fit]"}, {"molecule": "COc1cc(C2=N/C(=C\\c3ccccc3)C(=O)O2)cc(OC)c1OC", "Potency": "inactive"}, {"molecule": "NC(=O)CSc1ncnc2c1nnn2Cc1ccc(F)cc1", "Potency": "inactive"}, {"molecule": "Cc1ccc(-n2nc3c(=O)n(C(C)C(=O)NCc4ccc(OC(C)C)cc4)nc(C)c3c2C)cc1", "note": "(stereo not given)", "Potency": "inactive"}, {"molecule": "Oc1ccc(/C=N/N=C(c2ccccc2)c2ccccc2)c(O)c1O", "Potency": "active: 39.8 µM"}, {"molecule": "O=[N+]([O-])c1ccc(Sc2ccccn2)nc1", "Potency": "inactive"}, {"molecule": "O=C(Nc1cccc(O)c1)c1cc(=O)[nH]c2ccccc12", "Potency": "inactive"}, {"molecule": "COc1cc(/C=N\\NC(=O)c2ccc(=O)[nH]n2)cc(OC)c1OC", "Potency": "inconclusive: 20 µM [inhibitor, partial curve, poor fit]"}, {"molecule": "CC(NC(=O)c1ccc([N+](=O)[O-])cc1Cl)C1CC2CCC1C2", "note": "(stereo not given)", "Potency": "inconclusive: 39.8 µM [inhibitor, partial curve, poor fit]"}, {"molecule": "COc1ccc(OCC(=O)N2CCC3(CC2)N=C(c2ccc(C)cc2)NO3)cc1", "Potency": "inactive"}, {"molecule": "COc1ccc(OC)c(-n2c(-c3cccc(S(=O)(=O)N(C)C)c3)n[nH]c2=S)c1", "Potency": "inactive"}, {"molecule": "C=CCOC(=O)C1=C[C@@H](c2ccc3c(c2)OCO3)C[C@@H](OCCCCO)O1", "Potency": "inconclusive: 22.4 µM [inhibitor, partial curve, poor fit]"}, {"molecule": "CCC(Cc1ccccc1)NC(=O)Cn1nc(C)n2c(cc3occc32)c1=O", "note": "(stereo not given)", "Potency": "inconclusive: 100 µM [inhibitor, partial curve, poor fit]"}, {"molecule": "O=c1cc(CSc2ccc(Cl)cc2)nc(-c2ccncc2)[nH]1", "Potency": "inconclusive: 44.7 µM [inhibitor, partial curve, poor fit]"}, {"molecule": "Cc1nc2cnc(N3CCN(C)CC3)nc2n(Cc2ccc(F)cc2)c1=O", "Potency": "inconclusive: 35.5 µM [inhibitor, partial curve, poor fit]"}, {"molecule": "Cc1cc(Br)cn2c(Cc3cccc(Cl)c3)c(-c3cccc(Cl)c3)nc12", "Potency": "inconclusive: 100 µM [inhibitor, single point]"}, {"molecule": "Cc1ccc(C(=O)C(C)OC(=O)C23CC4CC(CC(O)(C4)C2)C3)cc1C", "note": "(stereo not given)", "Potency": "inconclusive: 79.4 µM [inhibitor, single point]"}, {"molecule": "Cc1cc(C(F)F)n2nc(C(=O)Nc3sc4c(c3C#N)CCC4)nc2n1", "Potency": "inconclusive: 8.91 µM [inhibitor, partial curve, poor fit]"}, {"molecule": "CC(c1ccccc1)N(C)C(=O)Cc1c[nH]c2ccccc12", "note": "(stereo not given)", "Potency": "inconclusive: 39.8 µM [inhibitor, partial curve, poor fit]"}, {"molecule": "Cc1cnc(C(=O)Nc2nnc(C3CC3)s2)cn1", "Potency": "inconclusive: 0.251 µM [inhibitor, full curve, poor fit]"}, {"molecule": "Cc1cc(=O)[nH]c(NN=Cc2cc(Br)ccc2O)n1", "Potency": "inconclusive: 44.7 µM [inhibitor, partial curve, poor fit]"}, {"molecule": "NC(=S)Nc1ccccc1Br", "Potency": "inconclusive: 63.1 µM [inhibitor, partial curve, poor fit]"}, {"molecule": "Cc1cccc(S(=O)(=O)Nc2nc3ccccc3nc2Nc2ccccc2F)c1", "Potency": "inconclusive: 3.16 µM [inhibitor, full curve]"}, {"molecule": "COc1ccc(N2C(=O)c3ccccc3C2O)cc1", "note": "(stereo not given)", "Potency": "inactive"}, {"molecule": "O=C(NCCCCN1CCN(c2cccc(Cl)c2Cl)CC1)c1ccc2c(c1)Cc1ccccc1-2", "Potency": "inconclusive: 39.8 µM [inhibitor, partial curve, poor fit]"}, {"molecule": "CN(C)Cc1cc(OCc2ccccc2)cc(CN(C)C)c1O", "Potency": "inconclusive: 12.6 µM [inhibitor, full curve, poor fit]"}, {"molecule": "CCN(CC)CCN(CC(=O)N(C1CCCCC1)C1CCCCC1)C(=O)c1ccco1", "Potency": "inconclusive: 7.94 µM [inhibitor, full curve]"}, {"molecule": "O=C(CSc1ccccn1)NC1CCCc2c1cnn2-c1ccccc1F", "note": "(stereo not given)", "Potency": "inactive"}, {"molecule": "CC(C)C[C@H]1CNC(=S)N1C[C@H]1CCCN1C[C@H](Cc1ccc(O)cc1)N1C[C@H](Cc2ccccc2)N(CCc2ccccc2)C1=S", "Potency": "inconclusive: 8.91 µM [inhibitor, full curve, poor fit]"}, {"molecule": "COc1ccc(S(=O)(=O)Nc2cc(C(=O)NCCC(C)C)ccc2N2CCOCC2)cc1", "Potency": "inactive"}, {"molecule": "CCCCc1cc(=O)oc2c(C)c3c(cc12)C(=O)CC(C)(C)O3", "Potency": "inconclusive: 28.2 µM [inhibitor, full curve, poor fit]"}, {"molecule": "N=C1/C(=C\\c2ccc(-c3ccc(C(=O)O)cc3)o2)C(=O)N=C2SC=C(c3ccccc3)N12", "Potency": "inconclusive: 10 µM [inhibitor, partial curve, poor fit]"}]}]}
